Experimental data reported in US20160279215A1, “NOVEL PEPTIDES AND COMBINATION OF PEPTIDES FOR USE IN IMMUNOTHERAPY AGAINST VARIOUS TUMORS” (immatics biotechnologies GmbH, priority 2015, published 2016).

Experiment: Identification and label-free relative LC-MS quantitation of HLA-presented peptides on tumor and normal tissue samples (XPRESIDENT presentation profiles)
Set-up: species or system human
Conditions: for Entities of particular interest: entities where the peptide was over-presented on cancer samples compared to normal tissues; for Additional entities of particular interest (presentation of selected peptides across entities): tumor entities on which the HLA-presented peptide was found, entity abbreviations defined in the title of Table 4B

Substance	Entities of particular interest	Additional entities of particular interest (presentation of selected peptides across entities)
2 (SVLEKEIYSI; listed as Homo sapiens) [compound 2]	NSCLC, HCC, BPH, OC, CRC, PC	GC, CLL, OSCAR, SCLC, UBC, UTC, BRCA, GBC_CCC, MEL, AML, NHL
3 (RVIDDSLVVGV; listed as Homo sapiens) [compound 3]	NSCLC, HCC, OC, MEL, CRC, PC, OSCAR	UBC
4 (VLFGELPAL; listed as Homo sapiens) [compound 4]	GB, NSCLC, BRCA, RCC, PC, OC, PC	SCLC, UBC, UTC
5 (GLVDIMVHL; listed as Homo sapiens) [compound 5]	NSCLC, RCC, OC	SCLC, UBC, BRCA, MEL, PC
6 (FLNAIETAL; listed as Homo sapiens) [compound 6]	–	RCC
7 (ALLQALMEL; listed as Homo sapiens) [compound 7]	GC, NSCLC, RCC, CRC, PC	CLL, OSCAR, OC, SCLC, UTC, BRCA, GBC_CCC, MEL, AML, NHL
9 (SLITGQDLLSV; listed as Homo sapiens) [compound 9]	NSCLC, BPH, OC, MEL, PC, OSCAR	SCLC, UBC, UTC, BRCA, GBC_CCC
12 (RLLDPKTIFL; listed as Homo sapiens) [compound 12]	NSCLC, RCC	–
13 (RLHDENILL; listed as Homo sapiens) [compound 13]	GB, GC, NSCLC, HCC, BPH, OC, RCC, CRC, PC, OSCAR	SCLC, UBC, UTC, BRCA, MEL, AML, NHL
15 (GLPSATTTV; listed as Homo sapiens) [compound 15]	GC, NSCLC, OC, PC	UBC, UTC, MEL
16 (SLADLSLLL; listed as Homo sapiens) [compound 16]	NSCLC, HCC, PC	GB, GC, BPH, CLL, OSCAR, OC, SCLC, UBC, UTC, BRCA, GBC_CCC, MEL, RCC, CRC, AML, NHL
17 (GLLPSAESIKL; listed as Homo sapiens) [compound 17]	NSCLC, BPH, OC, OSCAR	UBC
19 (KVFELDLVTL; listed as Homo sapiens) [compound 19]	GC, NSCLC, CRC, OSCAR	AML, NHL
22 (LMYPYIYHV; listed as Homo sapiens) [compound 22]	GB, NSCLC, OC, OSCAR	HCC, CLL, SCLC, UBC, BRCA, GBC_CCC, MEL, CRC, NHL
25 (LLWGHPRVALA; listed as Homo sapiens) [compound 25]	CRC, PC, NSCLC	–
26 (VLDGKVAVV; listed as Homo sapiens) [compound 26]	HCC, MEL, OC, GB, GC, NSCLC	CLL, UTC, NHL
27 (GLLGKVTSV; listed as Homo sapiens) [compound 27]	NSCLC, BRCA	SCLC, UBC
28 (IKVTDPQLLEL; listed as Homo sapiens) [compound 28]	–	NSCLC, MEL
29 (KMISAIPTL; listed as Homo sapiens) [compound 29]	NSCLC, OC	UTC
30 (IITEVITRL; listed as Homo sapiens) [compound 30]	–	OC, UTC

Substance	Entities of particular interest	Additional entities of particular interest (presentation of selected peptides across entities)
34 (TLNTLDINL; listed as Homo sapiens) [compound 34]	OC, PC	UTC
38 (VLQQESNFL; listed as Homo sapiens) [compound 38]	–	AML
40 (KIWEELSVLEV; listed as Homo sapiens) [compound 40]	GC, NSCLC, HCC, MEL	SCLC, UBC
44 (AVFNLVHVV; listed as Homo sapiens) [compound 44]	GC, NSCLC, PC	–
46 (ISLDEVAVSL; listed as Homo sapiens) [compound 46]	GB, NSCLC, HCC, OC	BRCA
47 (GLNGFNVLL; listed as Homo sapiens) [compound 47]	PC, OSCAR	SCLC, UTC, GBC_CCC, MEL, CRC, AML, NHL
49 (KLIGNIHGNEV; listed as Homo sapiens) [compound 49]	GB, NSCLC, OC	–
50 (ILLSVLHQL; listed as Homo sapiens) [compound 50]	NSCLC, CRC	–
51 (LDSEALLTL; listed as Homo sapiens) [compound 51]	GB, NSCLC, HCC	BRCA
53 (AQHLSTLLL; listed as Homo sapiens) [compound 53]	GC, NSCLC	SCLC, GBC_CCC
54 (YLVPGLVAA; listed as Homo sapiens) [compound 54]	NSCLC, OC	–
55 (HLFDKIIKI; listed as Homo sapiens) [compound 55]	GC, CRC	–
56 (VLQENSSDYQSNL; listed as Homo sapiens) [compound 56]	NSCLC, HCC	UTC
57 (TLYPGRFDYV; listed as Homo sapiens) [compound 57]	NSCLC, PC	OSCAR, UBC
59 (ALADGIKSFLL; listed as Homo sapiens) [compound 59]	NSCLC, PC	BRCA, MEL
60 (YLFSQGLQGL; listed as Homo sapiens) [compound 60]	NSCLC, PC	–
61 (ALYPKEITL; listed as Homo sapiens) [compound 61]	NSCLC, CRC	–
63 (KLLPMVIQL; listed as Homo sapiens) [compound 63]	NSCLC, PC	–
64 (SLYAGSNNQV; listed as Homo sapiens) [compound 64]	–	NSCLC
65 (SLSEKSPEV; listed as Homo sapiens) [compound 65]	NSCLC, OC, OSCAR, MEL	HCC, SCLC, UBC, UTC, BRCA, NHL

Substance	Entities of particular interest	Additional entities of particular interest (presentation of selected peptides across entities)
66 (AMFPDTIPRV; listed as Homo sapiens) [compound 66]	NSCLC, OC	–
67 (FLIENLLAA; listed as Homo sapiens) [compound 67]	GB, NSCLC	UTC
68 (QLMNLIRSV; listed as Homo sapiens) [compound 68]	HCC, PC	UBC, AML
69 (LKVLKADVVL; listed as Homo sapiens) [compound 69]	GC, NSCLC	–
71 (HMSGKLTNV; listed as Homo sapiens) [compound 71]	NSCLC, PC	–
73 (SVPKTLGV; listed as Homo sapiens) [compound 73]	GB, RCC	–
74 (GLAFLPASV; listed as Homo sapiens) [compound 74]	GC, CRC	–
75 (ALLDGALQL; listed as Homo sapiens) [compound 75]	–	GC, CRC
76 (FTAEFLEKV; listed as Homo sapiens) [compound 76]	NSCLC, PC, GB, OSCAR	UBC, MEL, AML, NHL
77 (ALYGNVQQV; listed as Homo sapiens) [compound 77]	NSCLC, OC	BRCA, NHL
78 (LFQSRIAGV; listed as Homo sapiens) [compound 78]	–	BPH
82 (ILAEEPIYIRV; listed as Homo sapiens) [compound 82]	NSCLC, PC, OSCAR, OC	–
83 (GLLENSPHL; listed as Homo sapiens) [compound 83]	NSCLC, OC	BRCA, MEL, AML, NHL
84 (FLLEREQLL; listed as Homo sapiens) [compound 84]	NSCLC, MEL, RCC, CRC, PC	CLL, UBC, UTC, BRCA, AML, NHL
86 (SLFSNIESV; listed as Homo sapiens) [compound 86]	NSCLC, BPH, CRC	SCLC, BRCA, GBC_CCC
87 (KLLSLLEEA; listed as Homo sapiens) [compound 87]	–	NSCLC, BPH
88 (LLLPLELSLA; listed as Homo sapiens) [compound 88]	GB, NSCLC, PC	–
92 (RLFEEVLGV; listed as Homo sapiens) [compound 92]	NSCLC, HCC, OC, OC	OSCAR, SCLC, UBC, BRCA, AML
